The values below come from PubChem BioAssay AID206 (DTP/NCI, 2004).

In this experiment the test system is nude mice, HT29 intrarenal xenograft, tumor weight T/C. Description: NCI In Vivo Anticancer Drug Screen. Data for tumor model HT29;CX-1 Human Adenocarcinoma (MER+) (intrarenal inoculation) in NU/NU Swiss (nude) mice. As to conditions: T/C endpoint: mean tumor weight change, higher T/C = larger tumour. In short, it runs like this:
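Tumor-bearing mice received test compound or vehicle, and tumor size or survival was recorded. Values are the treated-group measurement divided by the vehicle-treated control measurement.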

Setting [1] is: dose: 50.0 mg/kg/injection, schedule: Q01DX010 (sc), vehicle: saline.
The mark [2] stands for this setting: dose: 300.0 mg/kg/injection, schedule: Q04DX004 (sc), vehicle: saline with Tween-80.
The mark [3] stands for this setting: dose: 600.0 mg/kg/injection, schedule: Q04DX004 (sc), vehicle: saline with Tween-80.

The list does not hold the whole screen: it is rich in T/C values a quarter to a half above the control, in often repeated tests (any T/C) and in doses without a T/C. Other doses and runs of a compound stand elsewhere. T/C: endpoint of the treated group in % of that of the vehicle group. Schedule codes are those of the source, read here as Q, the interval in days (D) or hours (H), X, the number of doses. Some values lie below zero, which means that the treated tumours became smaller. Some doses were run more than once; the results are listed from low to high. Some T/C values carry the count of animals alive at the toxicity check (mostly the fifth day); where none is given, no animal had died by that day. Some doses have a count of surviving animals in place of a T/C: the source files T/C as zero there, which appears to mark a toxic dose or a test without result, not a measured value. Counts of survivors are from the toxicity check (mostly the fifth day) where no day follows; animals may have died later.

Turning to `C1OC1C1CO1` (stereo unspecified), the survivor count is given as 1 of 3 on day 20 under setting [1] and 0 of 3 on day 20 (dose: 100.0 mg/kg/injection, schedule: Q01DX010 (sc), vehicle: saline).
In the case of `C=C(C)C(=O)OC1C/C(CO)=C\C(O)C/C(C)=C/C2OC(=O)C(=C)C21` (stereo unspecified), the survivor count (dose: 160.0 mg/kg/injection, schedule: Q04DX004 (sc), vehicle: saline + alcohol) is on record as 1 of 6 on day 15.
As to `[N-]=[N+]=CC(=O)CCC(=O)C=[N+]=[N-]`, the T/C (dose: 4.5 mg/kg/injection, schedule: Q04DX004 (sc), vehicle: DMSO, evaluated on day 15) was 129 % of control.
In the case of `COc1ccc2c(NCCCCCCNc3c4ccccc4nc4cc(OC)ccc34)c3ccccc3nc2c1`, the T/C (dose: 5.0 mg/kg/injection, schedule: Q01DX010 (sc), vehicle: lactic acid, evaluated on day 11) is -31, 79, 111 % of control; the T/C (dose: 10.0 mg/kg/injection, schedule: Q01DX010 (sc), vehicle: lactic acid, evaluated on day 11) was 15, 19, 58, 68, 76 % of control; the T/C (dose: 20.0 mg/kg/injection, schedule: Q01DX010 (sc), vehicle: lactic acid, evaluated on day 11) is -15 % of control [2 of 3 alive on day 11]. Also, the survivor count is 0 of 3 on day 11 (dose: 10.0 mg/kg/injection, schedule: Q01DX010 (sc), vehicle: lactic acid); 0 of 3 on day 11, 1 of 5 on day 11, 1 of 3 on day 11 (dose: 20.0 mg/kg/injection, schedule: Q01DX010 (sc), vehicle: lactic acid); 0 of 3 on day 11 (dose: 30.0 mg/kg/injection, schedule: Q01DX010 (sc), vehicle: lactic acid); 0 of 2 on day 11, 0 of 3 on day 11, 1 of 3 on day 11 (dose: 40.0 mg/kg/injection, schedule: Q01DX010 (sc), vehicle: lactic acid).
Regarding `C1CN1c1nc(N2CC2)nc(N2CC2)n1`, the T/C (dose: 0.13 mg/kg/injection, schedule: Q01DX010 (sc), vehicle: saline, evaluated on day 20) was 145 % of control. Also, the survivor count runs as follows: (dose: 0.5 mg/kg/injection, schedule: Q01DX010 (sc), vehicle: saline) 0 of 3 on day 20; (dose: 1.0 mg/kg/injection, schedule: Q01DX010 (sc), vehicle: saline) 0 of 3 on day 20.
Turning to `C1CN(P2(N3CC3)=NP(N3CC3)(N3CC3)=NP(N3CC3)(N3CC3)=N2)CCO1` (stereo unspecified), the survivor count under setting [1] is listed as 0 of 3 on day 20.
For `CNc1n[n+](-c2ccccc2)no1`, the survivor count (dose: 150.0 mg/kg/injection, schedule: Q04DX004 (sc), vehicle: water) is recorded as 0 of 6 on day 15 and the survivor count (dose: 300.0 mg/kg/injection, schedule: Q04DX004 (sc), vehicle: water) was 0 of 6 on day 15.
As for `O=C1C(NCC(O)CO)=C(N2CC2)C(=O)C(NCC(O)CO)=C1N1CC1` (stereo unspecified), the survivor count (dose: 32.0 mg/kg/injection, schedule: Q04DX004 (sc), vehicle: saline) is 0 of 6 on day 15.
On to `Cc1cc2nc3c(=O)[nH]c(=O)nc-3n(CC(O)C(O)C(O)C(O)CO)c2cc1C` (stereo unspecified), for which the T/C (dose: 300.0 mg/kg/injection, schedule: Q04DX004 (sc), vehicle: saline with Tween-80, evaluated on day 15) was 129 % of control.
For the compound `CN1C(=O)NC(c2ccc(Cl)cc2)(c2ccc(Cl)cc2)C1=O`, the T/C (dose: 200.0 mg/kg/injection, schedule: Q01DX010 (sc), vehicle: saline with Tween-80, evaluated on day 20) is 125 % of control.
For `O=C(CC(=O)C(F)(F)F)c1csc2ccccc12`, the T/C (dose: 1200.0 mg/kg/injection, schedule: Q04DX004 (sc), vehicle: Klucel (hydroxypropylcellulose) (HPC), evaluated on day 15) is 128 % of control.
Regarding `Nc1ncnc2c1ncn2C1C=C(CO)C(O)C1O` (stereo unspecified), the survivor count (dose: 30.0 mg/kg/injection, schedule: Q04DX004 (sc), vehicle: saline) is 0 of 6 on day 15.
Regarding `CC1(C)CC(=O)C(CSC(=O)c2ccccc2)C(=O)C1`, the T/C runs as follows: (dose: 50.0 mg/kg/injection, schedule: Q01DX010 (sc), vehicle: Klucel (hydroxypropylcellulose) (HPC), evaluated on day 20) 137 % of control; (dose: 200.0 mg/kg/injection, schedule: Q01DX010 (sc), vehicle: Klucel (hydroxypropylcellulose) (HPC), evaluated on day 20) 147 % of control.
In the case of `CN(C)CCCNc1c2ccccc2nc2cccc([N+](=O)[O-])c12`, the T/C (dose: 0.75 mg/kg/injection, schedule: Q04DX004 (sc), vehicle: saline, evaluated on day 15) is 145 % of control. Further, the survivor count is, setting by setting: (dose: 1.5 mg/kg/injection, schedule: Q04DX004 (sc), vehicle: saline) 0 of 6 on day 15; (dose: 3.0 mg/kg/injection, schedule: Q04DX004 (sc), vehicle: saline) 0 of 6 on day 15.
On to `COC1C(CO)OC(n2cnc3c(=S)nc(N)[nH]c32)C1O` (stereo unspecified), for which the T/C was 144 % of control (dose: 300.0 mg/kg/injection, schedule: Q04DX004 (sc), vehicle: Klucel (hydroxypropylcellulose) (HPC), evaluated on day 15) and 144 % of control [5 of 6 alive on day 15] (dose: 600.0 mg/kg/injection, schedule: Q04DX004 (sc), vehicle: Klucel (hydroxypropylcellulose) (HPC), evaluated on day 15). Moreover, the survivor count (dose: 1200.0 mg/kg/injection, schedule: Q04DX004 (sc), vehicle: Klucel (hydroxypropylcellulose) (HPC)) is 0 of 5 on day 15.
Regarding `O=S(=O)(c1ccccc1)N1CN2CCN(C2)C1`, for the setting “dose: 1800.0 mg/kg/injection, schedule: Q04DX004 (sc), vehicle: saline with Tween-80”, the survivor count is reported as 0 of 6 on day 15.
For `O=CC=O`, the survivor count (dose: 400.0 mg/kg/injection, schedule: Q01DX010 (sc), vehicle: saline with Tween-80) was 0 of 3 on day 11.
With `CN1c2c(nc(N)[nH]c2=O)NCC1CCNc1ccc(C(=O)NC(CCC(=O)O)C(=O)O)cc1` (stereo unspecified), the survivor count reads like this: (dose: 400.0 mg/kg/injection, schedule: Q01DX010 (sc), vehicle: saline) 0 of 3 on day 11; (dose: 800.0 mg/kg/injection, schedule: Q01DX010 (sc), vehicle: saline) 1 of 3 on day 11; (dose: 1600.0 mg/kg/injection, schedule: Q01DX010 (sc), vehicle: saline) 0 of 3 on day 11.
Take `CN(C)C1C(=O)C(C(=O)NP(=O)(NCCCO)N(CCCl)CCCl)=C(O)C2(O)C(=O)C3=C(O)c4c(O)cccc4C(C)(O)C3CC12` (stereo unspecified): the survivor count is, setting by setting: under setting [2], 2 of 6 on day 15; under setting [3], 0 of 6 on day 15 and 2 of 6 on day 15; (dose: 1200.0 mg/kg/injection, schedule: Q04DX004 (sc), vehicle: saline with Tween-80) 0 of 6 on day 15.
As to `Nc1ncn(C2OC(CO)C(O)C2O)c(=O)n1` (stereo unspecified), the survivor count is recorded as 0 of 3 on day 11 (dose: 1.5 mg/kg/injection, schedule: Q01DX010 (sc), vehicle: saline); 1 of 6 on day 15 (dose: 20.0 mg/kg/injection, schedule: Q04DX004 (sc), vehicle: saline); 3 of 5 on day 15 (dose: 200.0 mg/kg/injection, schedule: Q04DX004 (sc), vehicle: suspension in saline); 0 of 6 on day 15 (dose: 2400.0 mg/kg/injection, schedule: Q04DX004 (sc), vehicle: suspension in saline).
As for `CCCCCCCCCCCCCCCCCCOCC(COP(=O)([O-])OCC[N+](C)(C)C)OC` (stereo unspecified), the survivor count (dose: 300.0 mg/kg/injection, schedule: Q04DX004 (sc), vehicle: saline) is 0 of 6 on day 15.
For `NC(=O)CC(N)C(=O)O` (stereo unspecified), the T/C (dose: 1600.0 mg/kg/injection, schedule: Q04DX004 (sc), vehicle: saline, evaluated on day 15) is 138 % of control.
With `COc1cc2cc(c1Cl)N(C)C(=O)CC(OC(=O)CC(C)C)C1(C)OC1C(C)C1CC(O)(NC(=O)O1)C(OC)/C=C/C=C(C)C2` (stereo unspecified), the T/C (dose: 125.0 micrograms/kg/injection, schedule: Q04DX004 (sc), vehicle: saline + alcohol, evaluated on day 15) was 135 % of control. Besides, the survivor count (dose: 500.0 micrograms/kg/injection, schedule: Q04DX004 (sc), vehicle: saline + alcohol) was 0 of 6 on day 15 and 3 of 6 on day 15.
In the case of `COc1cc(Cc2nccc3cc(OC)c(OC)cc23)c(C(C)=O)c(OC)c1`, the survivor count (dose: 320.0 mg/kg/injection, schedule: Q01DX010 (sc), vehicle: saline) was 0 of 3 on day 11.
On to `Cc1cc(=O)n2c3c(c4c(cc13)c(CN(C)C)cc(=O)n4C)OC2`, for which the survivor count under setting [2] is given as 1 of 6 on day 15 and the survivor count under setting [3] is on record as 1 of 6 on day 15.
On to `O=C1C=C(C2OC(CO)C(O)C2O)C(=O)N1` (stereo unspecified), for which the survivor count by setting is: (dose: 25.0 mg/kg/injection, schedule: Q01DX010 (sc), vehicle: saline) 1 of 3 on day 11; under setting [1], 0 of 3 on day 11.
